Where “and” joins values, the source holds several entries; their conditions need not be identical. Identical values can stand only once. Hit rate of the full screen: of about 240,000 compounds, about 1,300 (0.54%) were called active. Inconclusive means that the source gave no clear call. Such entries were picked first, then a sample of the others. Calls follow the shape of the dose curve; as a rule, active = well fitted inhibition curve with a large enough effect; inconclusive = small, poorly fitted or top-dose-only effect; inactive = flat fitted curve, though single readings scatter. Potencies of inconclusive entries are doubtful fits and often do not repeat. Some structures have more than one record in an assay (separate samples or runs), and their calls can disagree.
target: ATP-dependent DNA helicase Q1 (Homo sapiens) (UniProt P46063); assay: qHTS Assay for Inhibitors of RecQ-Like Dna Helicase 1 (RECQ1); settings: RECQ1 DNA unwinding, red fluorescence kinetic read; series mostly up to 57.3 µM; also: nearly all actives have a fitted effect of over 30% in size
Method in brief: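 RECQ1T1 50 nM; forked duplex (20 bp + 30-nt ss tails) 200 nM, ATP 2 mM final; pH 8.0, 2 mM MgCl2, 2.5 ug/ml poly(dI-dC); 15 min compound preincubation; discontinuous kinetic read over 2 h at RT.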
Potency is read from the fitted curve at half-maximal effect.

The chains behind the UniProt entries cited, without tags or fusion partners. Where a name states a change or a piece, a line headed by the entry shows the natural chain unless it says otherwise.
UniProt P46063: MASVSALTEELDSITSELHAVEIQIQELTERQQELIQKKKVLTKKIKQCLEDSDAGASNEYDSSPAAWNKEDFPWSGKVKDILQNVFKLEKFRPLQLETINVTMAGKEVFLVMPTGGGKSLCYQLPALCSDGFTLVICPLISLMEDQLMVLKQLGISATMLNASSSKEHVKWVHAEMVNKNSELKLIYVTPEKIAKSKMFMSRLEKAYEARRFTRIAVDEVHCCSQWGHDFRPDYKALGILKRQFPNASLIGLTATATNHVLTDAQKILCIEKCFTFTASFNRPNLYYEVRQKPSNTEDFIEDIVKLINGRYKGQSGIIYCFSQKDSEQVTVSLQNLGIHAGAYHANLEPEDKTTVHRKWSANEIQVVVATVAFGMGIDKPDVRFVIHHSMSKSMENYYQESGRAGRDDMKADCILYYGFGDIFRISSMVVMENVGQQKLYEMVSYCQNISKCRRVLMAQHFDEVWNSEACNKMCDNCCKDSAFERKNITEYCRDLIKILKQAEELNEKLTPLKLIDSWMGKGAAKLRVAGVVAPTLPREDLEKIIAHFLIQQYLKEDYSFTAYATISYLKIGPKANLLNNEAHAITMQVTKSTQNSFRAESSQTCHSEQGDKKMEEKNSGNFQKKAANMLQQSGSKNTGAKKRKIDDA

Compound	Potency
O=C(COC(=O)c1ccc2c(c1Cl)C(=O)c1ccccc1C2=O)NC1CC1	inactive
COCCN1C(=O)/C(=C/c2ccc(OCc3ccc(C(=O)O)cc3)c(OC)c2)SC1=Nc1ccccc1	inactive
c1ccc(-c2ccc(N3CCCC4(CCNCC4)C3)cc2)cc1	inactive
O=c1oc2c(O)c(O)cc3c(=O)oc4c(O)c(O)cc1c4c23	active: 126 nM and active: 562 nM
N#CCSc1nc2scc(-c3cccs3)c2c(=O)n1CCc1ccccc1	inconclusive: 17.8 µM [inhibitor, partial curve]
S=c1[nH]nc(-c2ccc(Cl)cc2)n1/N=C/C=C/c1ccco1	inconclusive: 31.6 µM [inhibitor, single point]
C=CCN1C(=O)/C(=C2/C(=O)N(CC(=O)O)c3ccccc32)S/C1=N/c1nccs1	active: 15.8 µM
COc1ccc2c(c1)O/C(=C\c1ccco1)C2=O	inconclusive: 35.5 µM [inhibitor, single point]
CC(=O)NC1=NC(=O)/C(=C/c2cc(C)n(-c3ccc(NC(C)=O)cc3)c2C)S1	active: 39.8 µM
Cc1ccc(SCC(=O)NC(=O)NCc2ccco2)c(C)c1	inconclusive: 39.8 µM [inhibitor, single point]
CC(=O)CC(c1ccccc1)c1c(O)c2ccccc2oc1=O (stereo unspecified)	inactive
CCCCCC1=C2CNC(CC(C)C)(C(=O)OC)C=C2C(C)C1=O (stereo unspecified)	inactive
Cc1nc(C)c(C(=O)Nc2ncc([N+](=O)[O-])s2)o1	inconclusive: 35.5 µM [inhibitor, single point]
O=C1OC(c2ccccc2)=N/C1=C\C=C\c1ccco1	inconclusive: 25.1 µM [inhibitor, single point]
CCOC(=O)Cc1cc(=O)c2c(=O)n(-c3ccccc3)[nH]c2[nH]1	inconclusive: 35.5 µM [inhibitor, single point]
Cc1ccc(N(C(=O)Cn2nnc3ccccc32)C(C(=O)NCc2ccco2)c2cccnc2)cc1 (stereo unspecified)	inactive
O=C(COC(=O)CCCN=C1NS(=O)(=O)c2ccccc21)NC(=O)NC1CCCC1	inconclusive: 39.8 µM [inhibitor, partial curve]
COc1cccc(/C=N/NC(=O)c2[nH]c(C)c(C(=O)N/N=C/c3cccc(OC)c3O)c2C)c1O	inactive
O=S(=O)(NC1CCN(Cc2ccccc2)CC1)c1cccc2cccnc12	inconclusive: 12.6 µM [inhibitor, partial curve]
CN(C)c1ccc(C=NC(CO)C(O)c2ccc([N+](=O)[O-])cc2)cc1 (stereo unspecified)	inactive
Cc1ccc(C(=O)c2c(C)oc3c2C(=O)C(=O)c2ccccc2-3)cc1	inconclusive: 39.8 µM [inhibitor, single point]
CS(=O)(=O)N(CC(=O)Nc1ccccc1Sc1ccccc1)c1cccc(Br)c1	inconclusive: 7.08 µM [inhibitor, single point]
CCCCCCCCCCCCC/C=C/[C@@H](O)[C@H](CO)NC(=O)CCCCC	inactive
CNc1nc(-c2ccccc2C(F)(F)F)nc2ccccc12	inconclusive: 39.8 µM [inhibitor, single point]

Compound	Potency
O=C1c2cccc3c(N4CCCCC4)ccc(c23)C(=O)N1c1cccc(O)c1	inactive
CCOc1cc(N2CCOCC2)c(OCC)cc1NC(=O)c1cccc(N(C)C)c1	inconclusive: 2.82 µM [inhibitor, partial curve]
O=C(CCCn1c(SCC(=O)c2ccc(O)c(O)c2)nc2ccccc2c1=O)NCC1CCCO1 (stereo unspecified)	active: 14.1 µM
CC(=O)O[C@@H]1C(CO[Si](C)(C)C(C)(C)C)=C(Br)C(=O)[C@@H]2O[C@]12C	inactive
COc1cc(/C=C2/CC/C(=C/c3ccc(O)c(OC)c3)C2=O)ccc1O	inactive
COc1ccc(Cl)cc1C(=O)NNC(=S)NC(=O)/C=C/c1ccco1	active: 31.6 µM
CCN(CC)S(=O)(=O)c1ccc(N2CCOCC2)c(NC(=O)c2c3c(nc4ccccc24)CCC3)c1	active: 15.8 µM
CC(=O)c1sc2nc(-c3ccco3)ccc2c1N	active: 3.55 µM
CCC1CC=CC2C1C(=O)N(Cc1ccccc1)C2c1ccoc1 (stereo unspecified)	inactive
O=C(Nc1cccc(C(=O)Nc2ccc(S(=O)(=O)O)c3cc(S(=O)(=O)O)cc(S(=O)(=O)O)c23)c1)Nc1cccc(C(=O)Nc2ccc(S(=O)(=O)O)c3cc(S(=O)(=O)O)cc(S(=O)(=O)O)c23)c1	active: 22.4 µM
COc1ccc(C(CC(=O)N2CCCC2)c2c(OC)cc(OC)c3c(-c4ccccc4)cc(=O)oc23)cc1 (stereo unspecified)	active: 12.6 µM
Cc1ccc(Cc2cnc(N)s2)o1	inconclusive: 35.5 µM [inhibitor, single point]
O=C1C=C(O)C(n2cncn2)C(c2ccc3c(c2)OCO3)C1 (stereo unspecified)	inconclusive: 35.5 µM [inhibitor, single point]
N#CCC1c2ccccc2CCN1C(=O)Nc1ccc(Cl)cc1 (stereo unspecified)	inconclusive: 0.794 µM [inhibitor, partial curve, poor fit]
CC(C)(C)c1cc(-c2csc(Nc3ccccc3)[n+]2Cc2ccc(C(=O)O)cc2)cc(C(C)(C)C)c1O	inactive
CC1Cc2nc(SCC(N)=O)n(Cc3ccccc3)c(=O)c2S1 (stereo unspecified)	inconclusive: 2.51 µM [inhibitor, full curve]
CCNc1ncc2nc(-c3ccc(OC)cc3)c(=O)n(CCc3ccccc3)c2n1	inactive
COCCn1c(-c2cccc([N+](=O)[O-])c2)nc2c1c(=O)[nH]c(=O)n2Cc1ccccc1	inconclusive: 0.447 µM [inhibitor, partial curve, poor fit]
COc1cccc2c1C(=O)c1c(O)c3c(c(O)c1C2=O)C[C@@](O)(C(C)=O)C[C@@H]3O[C@H]1C[C@H](N)[C@H](O)[C@H](C)O1	active: 31.6 µM and active: 35.5 µM and active: 28.2 µM
O=C(CCc1ccccc1)NC(=S)Nc1cc(C(F)(F)F)ccc1N1CCOCC1	inconclusive: 39.8 µM [inhibitor, partial curve, poor fit]
Cc1cc(C2C(=O)CC(=O)CC2c2ccccc2)on1 (stereo unspecified)	active: 25.1 µM
O=C1OCC2OC(O)C(O)C(O)C2OC(=O)c2cc(O)c(O)c(O)c2-c2c(O)c(O)c3oc(=O)c4c(c(O)c(O)c5oc(=O)c2c3c54)-c2c1cc(O)c(O)c2O (stereo unspecified)	active: 0.398 µM
CC(=O)Nc1ccc(OC(F)(F)C(F)C(F)(F)F)c(NC(C)=O)c1 (stereo unspecified)	inconclusive: 0.708 µM [inhibitor, single point]
Cc1ncc(CN2CCN(CCC(C)C)C(CCO)C2)s1 (stereo unspecified)	inconclusive: 44.7 µM [inhibitor, single point]

Compound	Potency
COC(=O)c1nn(-c2ccccc2)c(Sc2ccc(Br)cc2)c1/C=N/O	inconclusive: 39.8 µM [inhibitor, single point]
CC(C)Cn1c(-c2ccco2)csc1=Nc1cccnc1	inconclusive: 8.91 µM [inhibitor, full curve]
CC1(C)c2ccccc2N2CCC(=O)NC21/C=C/c1ccco1 (stereo unspecified)	inconclusive: 39.8 µM [inhibitor, single point]
Cc1nn(-c2ccccc2)c(Cl)c1C(=O)NCc1cccs1	inconclusive: 31.6 µM [inhibitor, single point]
COc1ccccc1Oc1ccc2c(c1)C(=O)N(c1cccc(O)c1)C2=O	inactive
Nc1cc2nc[nH]c2cc1N	active: 1.78 µM
CCOc1ccccc1CN1CCN(C2CCN(c3ccccc3F)CC2)CC1CCO (stereo unspecified)	inconclusive: 1.41 µM [inhibitor, full curve, poor fit]
CC(OC(=O)CNC(=O)c1ccc2c(c1)OCO2)C(=O)NCCC1=CCCCC1 (stereo unspecified)	inconclusive: 5.62 µM [inhibitor, partial curve, poor fit]
Cc1nc2c(ccc3nc(NC(=O)C(c4ccccc4)c4ccccc4)sc32)s1	active: 25.1 µM
CCC(C)NC(=O)c1cnc2n(c1=O)CCS2 (stereo unspecified)	inconclusive: 1.58 µM [inhibitor, full curve, poor fit]
O=C(COC(=O)c1ccc2c(c1)C(=O)N(Cc1ccncc1)C2=O)Nc1ccccc1[N+](=O)[O-]	inconclusive: 14.1 µM [inhibitor, partial curve]
COc1cc(OC)cc(C(=O)NCCOc2ccccc2)c1	inconclusive: 0.158 µM [inhibitor, full curve, poor fit]
O=C(COC(=O)CCC(=O)c1cccs1)NCc1ccco1	active: 7.94 µM
Cc1ccc(/C=C/C(=O)c2ccc(N3CCOCC3)cc2)s1	inconclusive: 39.8 µM [inhibitor, single point]
COc1cccc(OC)c1C(=O)NC(=S)Nc1ccc(S(=O)(=O)Nc2nccs2)cc1	inactive
CCCCCCc1c(C[C@H](N)C(=O)O)o[nH]c1=O	inconclusive: 4.47 µM [inhibitor, partial curve, poor fit]
O=C(CSc1nc2ccccc2s1)Nc1ccc(Cl)c(C(=O)O)c1	inactive
Cc1cc(C)nc(/N=C(\N)Nc2ccc3c(c2)OCCO3)n1	inactive
C/C(CC(=O)N1CCN(C=O)CC1)=N\NC(=O)c1ccc([N+](=O)[O-])cc1	inactive
Cc1ccccc1OC(=O)n1c(=S)oc2cc(Cl)ccc21	inactive
Cn1c(=O)c2c(SCc3cccnc3)nc(C3CC3)nc2n(C)c1=O	inconclusive: 8.91 µM [inhibitor, single point]
COc1ccc(Br)cc1C1C2C=CCC(C)C2C(=O)N1Cc1ccccc1 (stereo unspecified)	inactive
OCc1ccnc(Cl)c1	inconclusive: 35.5 µM [inhibitor, single point]
